Drawing on article PMC4583408, this text covers binding for one molecule.

In the assay the target is T1, Orbit 1071-1492-GFP (Drosophila) (UniProt Q9NBD7).
T1 sequence: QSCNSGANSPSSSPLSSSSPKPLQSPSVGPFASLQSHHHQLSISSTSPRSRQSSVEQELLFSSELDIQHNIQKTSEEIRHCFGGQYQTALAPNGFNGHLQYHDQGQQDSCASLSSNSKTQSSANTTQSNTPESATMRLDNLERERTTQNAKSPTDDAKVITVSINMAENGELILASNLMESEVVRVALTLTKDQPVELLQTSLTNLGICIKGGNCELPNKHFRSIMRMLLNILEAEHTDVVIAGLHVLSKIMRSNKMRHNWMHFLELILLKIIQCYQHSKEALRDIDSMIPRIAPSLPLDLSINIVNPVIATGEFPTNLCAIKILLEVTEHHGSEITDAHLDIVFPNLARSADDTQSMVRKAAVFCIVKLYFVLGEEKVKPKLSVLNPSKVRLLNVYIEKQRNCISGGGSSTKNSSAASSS
Kind of assay: co-IP; lysate of S2 cells co-expressing mCherry-tagged Msps 1406–1596 (wild type or mutant) and GFP-tagged pieces of the Orbit TOG3-CT fragment.

Results are given in words; binding and its absence hold for the method and conditions named. Binding seen in cells or lysates may run through a third protein. Some entries that bind do so weakly or less than the wild type. Sequences can lack the tags named with a protein.

B1: mCherry-tagged Msps 1406–1596 (domain or fragment, UniProt Q9VEZ3 1406-1596)
chain: RAKKTKKPTPPPSVDVPAPQRHDSIEIEDAEVGNGCDELPPPDEDGTFDQAPSSQLLLLQQQLQQLQQQAQQQKPSGPFGLDSQVISEIEKDWVRVDQMEQKPLLNVDISSLDEPIKVRPTRAGIHYPQEKFDRLISRQHYMQQTLTTSPSSTAGMTSGVSPYRSPMRLQHQQPQQQLENNIPNLADVLPK
For the molecule B1, the binding entry is on record as “binds”.
